Data as given in doi:10.1101/2023.08.19.553944.
Results are given in words; binding and its absence hold for the method and conditions named. In cells and extracts the contact can be indirect. Some binding calls cover weakened binding; strength is not graded here.

Protein sequences, listed by entry. Tags and fused reporters are not part of them.
UniProt P26599: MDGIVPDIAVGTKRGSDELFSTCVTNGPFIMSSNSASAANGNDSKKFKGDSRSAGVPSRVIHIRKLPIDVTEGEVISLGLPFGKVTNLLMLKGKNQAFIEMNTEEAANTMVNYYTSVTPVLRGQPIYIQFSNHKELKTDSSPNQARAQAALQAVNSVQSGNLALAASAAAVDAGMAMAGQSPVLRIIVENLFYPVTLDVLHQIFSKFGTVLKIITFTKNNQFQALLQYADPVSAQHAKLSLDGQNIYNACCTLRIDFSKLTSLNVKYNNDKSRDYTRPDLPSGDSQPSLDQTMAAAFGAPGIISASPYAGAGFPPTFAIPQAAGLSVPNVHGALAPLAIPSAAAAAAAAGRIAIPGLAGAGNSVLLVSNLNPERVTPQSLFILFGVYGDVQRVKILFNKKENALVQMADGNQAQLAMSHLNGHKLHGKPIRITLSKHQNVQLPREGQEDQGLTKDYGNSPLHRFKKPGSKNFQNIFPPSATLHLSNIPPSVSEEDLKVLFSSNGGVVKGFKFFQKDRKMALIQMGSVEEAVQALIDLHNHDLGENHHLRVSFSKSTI

Molecular target: GST-tagged PTBP1 (Polypyrimidine Tract-Binding Protein 1, longer form) (UniProt P26599)
Assay: pull-down

| Binder | binding |
| --- | --- |
| Raver1 (endogenous) (protein, UniProt Q8IY67 1-606) MAADVSVTHRPPLSPKSGAEVEAGDAAERRAPEEELPPLDPEEIRKRLEHTERQFRNRRKILIRGLPGDVTNQEVHDLLSDYELKYCFVDKYKGTAFVTLLNGEQAEAAINAFHQSRLRERELSVQLQPTDALLCVANLPPSLTQQQFEELVRPFGSLERCFLVYSERTGQSKGYGFAEYMKKDSAARAKSDLLGKPLGPRTLYVHWTDAGQLTPALLHSRCLCVDRLPPGFNDVDALCRALSAVHSPTFCQLACGQDGQLKGFAVLEYETAEMAEEAQQQADGLSLGGSHLRVSFCAPGPPGRSMLAALIAAQATALNRGKGLLPEPNILQLLNNLGPSASLQLLLNPLLHGSAGGKQGLLGAPPAMPLLNGPALSTALLQLALQTQGQKKPGILGDSPLGALQPGAQPANPLLGELPAGGGLPPELPPRRGKPPPLLPSVLGPAGGDREALGLGPPAAQLTPPPAPVGLRGSGLRGPLSHFYSGSPTSYFTSGLQAGLKQSHLSKAIGSSPLGSGEGLLGLSPGPNGHSHLLKVRAGGGDMQGWEAPAPQRPLTRPALPSVSRPHWAARNAALPTCCPRPSPAQKAAMWASTPRASAATTRTPT | binds |
| Raver2 (endogenous) (protein, UniProt Q9HCJ3 1-691) MAAAAGDGGGEGGAGLGSAAGLGPGPGLRGQGPSAEAHEGAPDPMPAALHPEEVAARLQRMQRELSNRRKILVKNLPQDSNCQEVHDLLKDYDLKYCYVDRNKRTAFVTLLNGEQAQNAIQMFHQYSFRGKDLIVQLQPTDALLCITNVPISFTSEEFEELVRAYGNIERCFLVYSEVTGHSKGYGFVEYMKKDFAAKARLELLGRQLGASALFAQWMDVNLLASELIHSKCLCIDKLPSDYRDSEELLQIFSSVHKPVFCQLAQDEGSYVGGFAVVEYSTAEQAEEVQQAADGMTIKGSKVQVSFCAPGAPGRSTLAALIAAQRVMHSNQKGLLPEPNPVQIMKSLNNPAMLQVLLQPQLCGRAVKPAVLGTPHSLPHLMNPSISPAFLHLNKAHQSSVMGNTSNLFLQNLSHIPLAQQQLMKFENIHTNNKPGLLGEPPAVVLQTALGIGSVLPLKKELGHHHGEAHKTSSLIPTQTTITAGMGMLPFFPNQHIAGQAGPGHSNTQEKQPATVGMAEGNFSGSQPYLQSFPNLAAGSLLVGHHKQQQSQPKGTEISSGAASKNQTSLLGEPPKEIRLSKNPYLNLASVLPSVCLSSPASKTTLHKTGIASSILDAISQGSESQHALEKCIAYSPPFGDYAQVSSLRNEKRGSSYLISAPEGGSVECVDQHSQGTGAYYMETYLKKKRVY | binds |
| CCAR1 (endogenous) (protein, UniProt Q8IX12 1-1150) MAQFGGQKNPPWATQFTATAVSQPAALGVQQPSLLGASPTIYTQQTALAAAGLTTQTPANYQLTQTAALQQQAAAAAAALQQQYSQPQQALYSVQQQLQQPQQTLLTQPAVALPTSLSLSTPQPTAQITVSYPTPRSSQQQTQPQKQRVFTGVVTKLHDTFGFVDEDVFFQLSAVKGKTPQVGDRVLVEATYNPNMPFKWNAQRIQTLPNQNQSQTQPLLKTPPAVLQPIAPQTTFGVQTQPQPQSLLQAQISAASITPLLQTQPQPLLQQPQQKAGLLQPPVRIVSQPQPARRLDPPSRFSGRNDRGDQVPNRKDDRSRERERERRRSRERSPQRKRSRERSPRRERERSPRRVRRVVPRYTVQFSKFSLDCPSCDMMELRRRYQNLYIPSDFFDAQFTWVDAFPLSRPFQLGNYCNFYVMHREVESLEKNMAILDPPDADHLYSAKVMLMASPSMEDLYHKSCALAEDPQELRDGFQHPARLVKFLVGMKGKDEAMAIGGHWSPSLDGPDPEKDPSVLIKTAIRCCKALTGIDLSVCTQWYRFAEIRYHRPEETHKGRTVPAHVETVVLFFPDVWHCLPTRSEWETLSRGYKQQLVEKLQGERKEADGEQDEEEKDDGEAKEISTPTHWSKLDPKTMKVNDLRKELESRALSSKGLKSQLIARLTKQLKVEEQKEEQKELEKSEKEEDEDDDRKSEDDKEEEERKRQEEIERQRRERRYILPDEPAIIVHPNWAAKSGKFDCSIMSLSVLLDYRLEDNKEHSFEVSLFAELFNEMLQRDFGVRIYKSLLSLPEKEDKKEKDKKSKKDERKDKKEERDDETDEPKPKRRKSGDDKDKKEDRDERKKEDKRKDDSKDDDETEEDNNQDEYDPMEAEEAEDEEDDRDEEEMTKRDDKRDINRYCKERPSKDKEKEKTQMITINRDLLMAFVYFDQSHCGYLLEKDLEEILYTLGLHLSRAQVKKLLNKVVLRESCFYRKLTDTSKDEENHEESESLQEDMLGNRLLLPTPTVKQESKDVEENVGLIVYNGAMVDVGSLLQKLEKSEKVRAEVEQKLQLLEEKTDEDEKTILNLENSNKSLSGELREVKKDLSQLQENLKISENMNLQFENQMNKTIRNLSTVMDEIHTVLKKDNVKNEDKDQKSKENGASV | binds |
